Measurements as given in publication PMC11673000 (2024).
Results are given in words; binding and its absence hold for the method and conditions named. In cells and extracts the contact can be indirect. Some results given as binding are weak or reduced against the parent protein; the word gives no strength. One block for each substance: values may come before it.

Protein sequences, listed by entry. Tags and fused reporters are not part of them. Lines headed by an entry give the natural chain unless they say otherwise; changes in a name come on top.
UniProt O15205: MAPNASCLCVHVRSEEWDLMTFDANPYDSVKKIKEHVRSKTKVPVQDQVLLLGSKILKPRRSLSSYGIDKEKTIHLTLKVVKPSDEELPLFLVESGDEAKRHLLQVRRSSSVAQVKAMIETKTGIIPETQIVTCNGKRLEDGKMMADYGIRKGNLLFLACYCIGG
UniProt P55036: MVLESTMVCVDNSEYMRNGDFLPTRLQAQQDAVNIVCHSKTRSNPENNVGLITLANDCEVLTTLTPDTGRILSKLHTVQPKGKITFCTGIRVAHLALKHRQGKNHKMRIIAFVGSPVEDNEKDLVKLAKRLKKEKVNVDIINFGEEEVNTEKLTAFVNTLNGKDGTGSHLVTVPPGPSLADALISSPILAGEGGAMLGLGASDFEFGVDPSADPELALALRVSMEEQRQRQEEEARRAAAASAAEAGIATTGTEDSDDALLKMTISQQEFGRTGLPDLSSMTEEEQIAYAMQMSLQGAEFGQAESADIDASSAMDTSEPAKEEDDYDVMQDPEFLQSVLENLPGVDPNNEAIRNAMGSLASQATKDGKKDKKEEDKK
UniProt Q9Y5A7: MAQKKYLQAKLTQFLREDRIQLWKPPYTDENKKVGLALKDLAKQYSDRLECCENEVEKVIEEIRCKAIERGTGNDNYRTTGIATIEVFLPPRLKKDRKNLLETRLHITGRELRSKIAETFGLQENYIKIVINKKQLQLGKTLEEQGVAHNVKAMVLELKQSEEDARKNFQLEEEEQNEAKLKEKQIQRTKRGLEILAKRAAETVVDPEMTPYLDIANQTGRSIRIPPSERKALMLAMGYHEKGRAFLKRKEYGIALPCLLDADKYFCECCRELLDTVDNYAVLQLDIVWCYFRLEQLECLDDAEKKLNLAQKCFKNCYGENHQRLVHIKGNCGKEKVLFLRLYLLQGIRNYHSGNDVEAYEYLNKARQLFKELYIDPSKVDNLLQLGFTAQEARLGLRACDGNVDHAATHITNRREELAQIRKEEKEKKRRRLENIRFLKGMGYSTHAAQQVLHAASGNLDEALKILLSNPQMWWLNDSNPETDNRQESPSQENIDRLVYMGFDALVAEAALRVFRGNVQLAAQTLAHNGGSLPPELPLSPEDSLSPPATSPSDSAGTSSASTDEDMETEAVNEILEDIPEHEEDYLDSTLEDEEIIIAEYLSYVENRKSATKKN

Assays:
[1] = target: FAT10 wild type (His-3xFLAG-FAT10) (UniProt O15205); experiment: co-IP; HEK293T co-transfected with NUB1L and FAT10 expression plasmids; lysed one day later; FAT10 immunoprecipitated with monoclonal antibody 4F1 + protein A beads; immunoblot for NUB1L
[2] = target: phospho-mimetic FAT10 (FAT10 D; S62D, S64D, T77E, S95D, S109D) (UniProt O15205); experiment: as above
RPN10 (human) = RPN10 (human) (UniProt P55036); experiment: co-IP; HEK293T co-transfected with RPN10 and FAT10 (WT or D); lysed one day later; immunoprecipitation with HA beads; immunoblot
[3] = target: NEDD8 ultimate buster-1 long (NUB1L) (UniProt Q9Y5A7); experiment: co-IP; HEK293T co-transfected with NUB1L and FAT10 (WT, D, single and multiple mutants); lysed one day later; HA-immunoprecipitation; immunoblot for FLAG-FAT10

- binding [1]: binds
- binding [2]: no binding
Substance: NEDD8 ultimate buster-1 long (NUB1L) (from UniProt Q9Y5A7-1 1-615)

- binding (RPN10 (human)): binds
Substance: phospho-mimetic FAT10 (FAT10 D; S62D, S64D, T77E, S95D, S109D) (from UniProt O15205 1-165)

- binding [3]: binds weakly
Substance: FAT10 T77E (single phospho-mimetic mutant) (from UniProt O15205 1-165)
